Source: article PMC8179133
These are yes or no findings as the source states them, for the method shown.

Chains of the proteins cited; added tags and fusions are not shown. Residues count along the entry.
UniProt P15502, residues 27-786: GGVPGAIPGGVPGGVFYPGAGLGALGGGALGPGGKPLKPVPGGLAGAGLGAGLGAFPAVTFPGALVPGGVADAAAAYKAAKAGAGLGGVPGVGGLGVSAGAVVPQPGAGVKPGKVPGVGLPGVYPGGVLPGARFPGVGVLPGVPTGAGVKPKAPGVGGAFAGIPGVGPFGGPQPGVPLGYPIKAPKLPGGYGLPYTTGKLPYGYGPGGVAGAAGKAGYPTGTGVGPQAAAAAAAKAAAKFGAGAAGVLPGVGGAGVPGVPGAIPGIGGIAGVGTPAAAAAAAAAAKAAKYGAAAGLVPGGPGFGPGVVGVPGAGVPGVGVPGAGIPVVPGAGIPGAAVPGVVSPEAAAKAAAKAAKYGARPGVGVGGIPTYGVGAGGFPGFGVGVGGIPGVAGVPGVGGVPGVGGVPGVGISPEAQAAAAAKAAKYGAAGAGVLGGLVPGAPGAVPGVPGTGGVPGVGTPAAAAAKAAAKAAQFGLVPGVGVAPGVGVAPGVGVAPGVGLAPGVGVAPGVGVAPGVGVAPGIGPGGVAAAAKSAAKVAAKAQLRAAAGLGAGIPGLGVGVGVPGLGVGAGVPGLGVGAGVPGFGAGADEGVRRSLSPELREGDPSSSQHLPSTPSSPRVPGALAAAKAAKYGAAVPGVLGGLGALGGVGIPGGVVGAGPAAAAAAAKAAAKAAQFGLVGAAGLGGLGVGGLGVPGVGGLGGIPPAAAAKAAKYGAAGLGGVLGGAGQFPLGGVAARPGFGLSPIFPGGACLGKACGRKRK
UniProt P02769, residues 25-607: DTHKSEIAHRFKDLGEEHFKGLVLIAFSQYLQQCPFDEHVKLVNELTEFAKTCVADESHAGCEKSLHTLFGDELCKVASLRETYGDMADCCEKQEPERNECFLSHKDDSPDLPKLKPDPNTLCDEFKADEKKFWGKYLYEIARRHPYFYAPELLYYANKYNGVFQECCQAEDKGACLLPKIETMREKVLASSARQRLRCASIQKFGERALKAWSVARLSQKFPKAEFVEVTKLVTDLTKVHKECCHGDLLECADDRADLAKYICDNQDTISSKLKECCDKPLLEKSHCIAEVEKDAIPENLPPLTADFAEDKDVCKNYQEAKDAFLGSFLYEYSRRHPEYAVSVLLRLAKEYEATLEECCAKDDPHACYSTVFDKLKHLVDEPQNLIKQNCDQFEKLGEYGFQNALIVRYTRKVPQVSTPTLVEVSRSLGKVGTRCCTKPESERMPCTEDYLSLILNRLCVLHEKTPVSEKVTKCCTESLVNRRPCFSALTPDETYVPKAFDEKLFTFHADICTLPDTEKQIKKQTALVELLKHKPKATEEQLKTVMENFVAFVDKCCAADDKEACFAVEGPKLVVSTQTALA

How the values were obtained:
[1] = target: elastin from human skin (human) (UniProt P15502); experiment: ELISA; putative ligands (5 µg/mL in carbonate-bicarbonate buffer, 50 µL) adsorbed on MaxiSorp plates O/N at 4 °C; blocked 1 h with 3% BSA or 1% gelatin in PBS; serial twofold dilutions of 6His-PilB (40 to 0.625 µg/mL) for 2 h at 37 °C; detected with anti-6His antibody and HRP-linked anti-rabbit IgG, read at 450 nm; Kd by nonlinear regression (One site - Total and nonspecific binding) with BSA or gelatin as nonspecific binding control; both purified
[2] = target: bovine serum albumin (bovine) (UniProt P02769); experiment: as above

Question: “6His-PilB_(36-461) (from UniProt A0A0B7GP99 36-461) (domain or fragment)” was tested. Which binding [1] did it give?
Answer: Its binding is “no binding (tested: 40 µg/mL (highest concentration of PilB))”.

Question: And the binding [2]?
Answer: The binding was “no binding (tested: 40 µg/mL (highest concentration of PilB))”.
